Measured values: article PMC7819943, “Rice protein-binding microarrays: a tool to detect cis-acting elements near promoter regions in rice”
Some of the results follow.

What follows are sequences tested against T1, OsSMF1 (Oryza sativa, UniProt Q6ZLB0 1-436) (assay: protein-binding microarray (RPBM); PBS, 2% BSA, 51.3 ng/ul salmon testes DNA, 50 uM zinc acetate, 200 nM TF, 25 C, 1 h; high values mean tight binding). Conditions: protein: recombinant; tags: N-terminal polyhistidine and DsRed monomer fusion (pET32a); chain copies: 2; label: CyDye5-dUTP incorporated in the synthesized complementary strand; 3' TTTTT single-stranded linker to array surface; dsDNA, one strand shown.
T1 sequence: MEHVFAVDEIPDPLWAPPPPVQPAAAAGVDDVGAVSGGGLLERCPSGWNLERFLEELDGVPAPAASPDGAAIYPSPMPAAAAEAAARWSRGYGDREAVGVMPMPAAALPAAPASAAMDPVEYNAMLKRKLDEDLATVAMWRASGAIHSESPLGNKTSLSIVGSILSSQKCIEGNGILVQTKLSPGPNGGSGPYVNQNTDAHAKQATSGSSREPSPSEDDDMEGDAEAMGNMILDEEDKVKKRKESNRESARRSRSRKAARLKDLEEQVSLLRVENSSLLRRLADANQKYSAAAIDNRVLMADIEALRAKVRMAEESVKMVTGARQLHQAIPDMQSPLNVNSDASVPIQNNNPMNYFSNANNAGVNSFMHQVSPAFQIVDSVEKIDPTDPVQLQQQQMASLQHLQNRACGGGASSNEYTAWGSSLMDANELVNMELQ
In short: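 Polyhistidine-tagged DsRed fusions of transcription factors, joined at the N-terminus, were expressed in E. coli BL21-CodonPlus and isolated on Ni–NTA. They were incubated at 200 nM for 1 h at 25 °C on a custom Agilent array, double-stranded and BSA-blocked, in PBS with 2% BSA, salmon testes DNA and 50 µM zinc acetate. The binding signal is per-feature fluorescence intensity (arbitrary units) read on an Axon 4000B scanner after washing.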
With “TCTTTGTCTCATTATCTGCAACGTGCCCACCCACCAGTCCCGGAGTCACCTAGTGCAG” the binding signal was 3250 fluorescence intensity (a.u.).
With “CACCACTAATCCATTCCAAATTTCCAATACAATGAACACTCGGAGTCACCTAGTGCAG” the binding signal was 8160 fluorescence intensity (a.u.).
“ACCGCAAAGTTGACAGCAACGCACATGCGCCCGCGCCATACGGAGTCACCTAGTGCAG” was tested, and the binding signal was 3240 fluorescence intensity (a.u.).
With “ACTGTACGGTGTCAGAGAAAGAGGGCGTCAGTGCGTCACACGGAGTCACCTAGTGCAG” the binding signal was 3320 fluorescence intensity (a.u.).
In the case of “TGCCCTTACGAGTCACTTGTTGGAGACAGTCTTATAGCATCGGAGTCACCTAGTGCAG”, the binding signal is reported as 3850 fluorescence intensity (a.u.).
With “CACCCTGACCCACATGTCATTGACTCATGTGGGTCCGACACGGAGTCACCTAGTGCAG” the binding signal was 3500 fluorescence intensity (a.u.).
With “TGCTAACCCTGTTCCAGCTCAGCTCCATTGATGAACTACTCGGAGTCACCTAGTGCAG” the binding signal was 4490 fluorescence intensity (a.u.).
With “CGTCGTGCTCGTCGACGTCGTGCACTCCGTCGCCATCGTGCGGAGTCACCTAGTGCAG” the binding signal was 3220 fluorescence intensity (a.u.).
In the case of “TGCTGGCAAGTCACGCACAAGGGGAACACATTAGTTGTCACGGAGTCACCTAGTGCAG”, the binding signal is reported as 4120 fluorescence intensity (a.u.).
For “TAGCTGCCACCGCACGCGTAGGTCGTCGCCGCCGCTGCACCGGAGTCACCTAGTGCAG”, the binding signal was 4010 fluorescence intensity (a.u.).
In the case of “GCCCTACTGCCCTTGACACGTCGTCCATCCCATCGAACCGCGGAGTCACCTAGTGCAG”, the binding signal is reported as 10400 fluorescence intensity (a.u.).
“CCCCTTATCCACGAACCCCGACCGGCAGAGAGCGCAGACGCGGAGTCACCTAGTGCAG” was tested, and the binding signal was 37200 fluorescence intensity (a.u.).
For “ATCCGAAAACACCTTAGGTCTTGTTCGGTTTAGAGAGTATCGGAGTCACCTAGTGCAG”, the binding signal was 38000 fluorescence intensity (a.u.).
“GCGTAGAGTGTCCACATATCAAGGACTTCTAGTTTTACTTCGGAGTCACCTAGTGCAG” was tested, and the binding signal was 3260 fluorescence intensity (a.u.).
For “GTCGGGCCGGCGCGGCGGGCCTGGTGGCAGCGCGCGACGTCGGAGTCACCTAGTGCAG”, the binding signal was 3800 fluorescence intensity (a.u.).
For “ACTGACTAGGATATACTACGTCAGTCAGAACAACCATCCACGGAGTCACCTAGTGCAG”, the binding signal was 4670 fluorescence intensity (a.u.).
With “ACGCGTCGCGTCGCGTGCGTGGGAGGGCAATCTCGTCCGTCGGAGTCACCTAGTGCAG” the binding signal was 3490 fluorescence intensity (a.u.).
With “GCCCACTTGCTGACAACGCAGTTAGTTCGCCGAAGCCAACCGGAGTCACCTAGTGCAG” the binding signal was 8250 fluorescence intensity (a.u.).
For “TTTGGTACTCCGATCCCGTTCATCATTGCGTCAGGGCTTACGGAGTCACCTAGTGCAG”, the binding signal was 4920 fluorescence intensity (a.u.).
For “GCTCTTGAGAATGTTGCTGAGTTGTCAGCTCTCTCCACCCCGGAGTCACCTAGTGCAG”, the binding signal was 15700 fluorescence intensity (a.u.).
“GTGCAACCGTGCAAGCTTTGTTTATTTGACAGCACAACTCCGGAGTCACCTAGTGCAG” was tested, and the binding signal was 3560 fluorescence intensity (a.u.).
In the case of “AAATGGCAACGTGCTAATATAACTTCCTCCCCTTCTTACCCGGAGTCACCTAGTGCAG”, the binding signal is reported as 3200 fluorescence intensity (a.u.).
For “CATATATAGTCTTTGTCATGTTATTCCCAAGACTTACTTCCGGAGTCACCTAGTGCAG”, the binding signal was 3570 fluorescence intensity (a.u.).
For “AGCCCAATTTCACTTGCGGATTTGTGTGACAGTGTGACACCGGAGTCACCTAGTGCAG”, the binding signal was 4650 fluorescence intensity (a.u.).
In the case of “TTGTATTGCTGATACATGTTGTAATAGCCGAGTCTCCTACCGGAGTCACCTAGTGCAG”, the binding signal is reported as 3480 fluorescence intensity (a.u.).
With “AGCCCTCACCCGAAGAACACGGTACACGTGGCACCTAACCCGGAGTCACCTAGTGCAG” the binding signal was 15900 fluorescence intensity (a.u.).
In the case of “TATTGATTGTTACAACATGTTTGGAATTAGCTGAACTGAGCGGAGTCACCTAGTGCAG”, the binding signal is reported as 3330 fluorescence intensity (a.u.).
With “GGCGTAAAAGAAAGAGGAGAAATTCTCCCGTCGTCTCCTTCGGAGTCACCTAGTGCAG” the binding signal was 24700 fluorescence intensity (a.u.).
With “CGCGAGACAGTCAGCACCAATCGCTCACCTTGCTCGATGCCGGAGTCACCTAGTGCAG” the binding signal was 3500 fluorescence intensity (a.u.).
With “CACTCCTGCTGCCGTCCAGTTGCAATTGCGTTTTCTCCTTCGGAGTCACCTAGTGCAG” the binding signal was 3220 fluorescence intensity (a.u.).
In the case of “ACTCGACCAGCCCCGCCAGCTTGAGCTCGCTCACTTCTGCCGGAGTCACCTAGTGCAG”, the binding signal is reported as 4640 fluorescence intensity (a.u.).
“AAATTCTTACTAACACTGATGTGTCATGCTATGAGTGCATCGGAGTCACCTAGTGCAG” was tested, and the binding signal was 4940 fluorescence intensity (a.u.).
In the case of “ATCTTAATTGTCAACGCTGTTTGTGCAATAATCTTCAGCTCGGAGTCACCTAGTGCAG”, the binding signal is reported as 3140 fluorescence intensity (a.u.).
In the case of “TTCCTTGCCGTTTAACAGCACACCAAGGTTAGTACTAGCACGGAGTCACCTAGTGCAG”, the binding signal is reported as 3920 fluorescence intensity (a.u.).
“CTCGCTCTGTTGAGTCTTTATCGCACGTACACATGTCTGTCGGAGTCACCTAGTGCAG” was tested, and the binding signal was 3320 fluorescence intensity (a.u.).
For “TACCTATCGGTGAAAATATGTCAGGGACATGGTGGTATACCGGAGTCACCTAGTGCAG”, the binding signal was 3210 fluorescence intensity (a.u.).
“CTGTATTTTGATCATTTTGATTCACACAATAACACCAGCGCGGAGTCACCTAGTGCAG” was tested, and the binding signal was 3220 fluorescence intensity (a.u.).
With “CAATTCGACGCCCCACGTATGGCCCACTTGCAGGCCAGCCCGGAGTCACCTAGTGCAG” the binding signal was 4190 fluorescence intensity (a.u.).
In the case of “TGAAGATAGATGTCTCGAAGTCGAGCGACGTCATGGCGGCCGGAGTCACCTAGTGCAG”, the binding signal is reported as 3280 fluorescence intensity (a.u.).
In the case of “GACGGGGAGGTGGGTGAGTCATGGGCTGACCCAATAACAGCGGAGTCACCTAGTGCAG”, the binding signal is reported as 5440 fluorescence intensity (a.u.).
In the case of “CGAGTCAAGTCATGCTGAGGTGGAAGAAACTCCGATAGGACGGAGTCACCTAGTGCAG”, the binding signal is reported as 6710 fluorescence intensity (a.u.).
In the case of “GATGAGGGAGAAGGAGGTGTAGAGACTGACGTGTGGGCCCCGGAGTCACCTAGTGCAG”, the binding signal is reported as 3670 fluorescence intensity (a.u.).
With “ACTACTTACTACAAATTGAAAGACGCGTCATGTCTGCTGTCGGAGTCACCTAGTGCAG” the binding signal was 8180 fluorescence intensity (a.u.).
“AATTTGAGTTTATGACGCGTAGGCCCAATGATTTGTAAGGCGGAGTCACCTAGTGCAG” was tested, and the binding signal was 3610 fluorescence intensity (a.u.).
“GCGCCGATGGTCAGGCCTGCCACATCACCACTTCACTTGGCGGAGTCACCTAGTGCAG” was tested, and the binding signal was 21800 fluorescence intensity (a.u.).
In the case of “CTTCCTCTCTACTAATCCAAGTCACAGGTCGGCCATGACCCGGAGTCACCTAGTGCAG”, the binding signal is reported as 4720 fluorescence intensity (a.u.).
“GTAGTACTAGCTTTGTGGCTTCCGCTGCTTCTGTCACTGCCGGAGTCACCTAGTGCAG” was tested, and the binding signal was 3210 fluorescence intensity (a.u.).
“ACTGCCGCTACCCTCTCTTTAGTCCCGGTTATTTCACCTGCGGAGTCACCTAGTGCAG” was tested, and the binding signal was 31900 fluorescence intensity (a.u.).
In the case of “TCCCATTTAGTCCTAGGATTCATAGTTTGACAAAGTGAGTCGGAGTCACCTAGTGCAG”, the binding signal is reported as 6570 fluorescence intensity (a.u.).
“CTTCGCCTCAACTGCCACGGTGCCGTCGTCCTCCTCCATGCGGAGTCACCTAGTGCAG” was tested, and the binding signal was 5270 fluorescence intensity (a.u.).
With “CTGTCTGGTTCAACAAGATCGCTGACAAGACCGTCATCTGCGGAGTCACCTAGTGCAG” the binding signal was 3790 fluorescence intensity (a.u.).
With “TCACTGACAACTGTGGCCCACAGTCTACCCACGGCGGCAGCGGAGTCACCTAGTGCAG” the binding signal was 3410 fluorescence intensity (a.u.).
With “TCACGCTCTTCTTGTGTCCCTCCACGTCGCGGTGCCCGTGCGGAGTCACCTAGTGCAG” the binding signal was 5050 fluorescence intensity (a.u.).
With “AACACGTTACAGTTTCCTACATACAATATAGCACTTCATCCGGAGTCACCTAGTGCAG” the binding signal was 4770 fluorescence intensity (a.u.).
